Some of the results follow.

B1: il2ra_site1_3nfp_normal_mot_HHH_b2_00286_000000273_0001_43_57_H_._97e99672e168623ff83a69b38e8865de_0001_1_0001_0000200016_0000001_0_af2pred_0001_af2pred_1 (protein)
chain: SDEELLKRMVEYAVRNNSPRTLRKILRALRARLGDPEEAERVLEELIEEVLGDPEEAQRLVEEAK
B2: il2ra_site1_3nfp_normal_mot_HHH_b1_07440_af2_000000231_0001_1_19_H_._HHH_b1_04788_0001_0000400025_0000001_0 (protein)
chain: SSSSSERLIEDVLRSAERLEELAEELGDEELRKEVEELYEELRKHNDPEALQRLLRLAWEFSSSS
B3: il2ra_site2_2erj_sap_22_mot_HHH_b1_07609_af2_000000145_0001_21_36_H_._HHH_b2_04596_0001_0000200002_0000001_0_0001 (protein)
chain: SSSSDEELRELFRLISELLHLVSNGDEEEARELAEELKKLAQETNSPNAEEHIEANLRKVTSSSS
B4: il2ra_site2_3nfp_sap_18_mot_HHH_b2_06150_000000217_0001_39_53_H_._HHH_b2_00252_0001_0000700027_0000001_0_0001 (protein)
chain: SSSSDYEEKIKELEEEAKELEEEGNPEEAYRVIAKAAVIAWENNDTETYMKLAELAFEIAQSSSS
B5: il2ra_site2_3nfp_normal_mot_HHH_b1_02096_000000221_0001_22_38_H_._HHH_b1_01329_af2_0001_0000100001_0000001_0 (protein)
chain: SSSSSEEEAEEAVEAAIRLARERGDEEVLEELERLLEEARKEGDYRLLMEAYALIQELALESSSS
B6: il2ra_site1_1z92_normal_mot_HHH_b2_04375_000000267_0001_42_56_H_._HHH_b2_07094_0001_0000200008_0000001_0 (protein)
chain: SSSSSSLEEIAREIVEELVEEYGLSEEDKEALEKDAELLVRLGFSPRSIEIALRSAAERASSSSS
B7: il2ra_site1_2b5i_normal_mot_f5ff40796168375b462bec8614a1db4a_0001_1_000000138_0001_53_65_H_._HHH_b1_07140_af2_0001_0000300020_0000001_0_af2pred_dldesign_0_af2pr … (protein)
chain: SSSSSDLRELVRELVEEAERLEKEGKPELARKLLILARRLAKKAKDEELVAELEAKLKELESSSS
B8: il2ra_site2_2erj_normal_mot_HHH_b2_01353_af2_000000049_0001_23_39_H_._HHH_b1_04928_af2_0001_0001100046_0000001_0 (protein)
chain: SSSDLEEEVKELLEEAEELLKEGNPEEAEEVLREASEIVFQLGNFELFDRVLELLHEIARLQSSS
B9: il2ra_site1_2b5i_normal_mot_HHH_b2_06557_000000121_0001_42_56_H_._375b083c3fa73620112447366e1c9e02_0001_1_0001_0000200028_0000001_0_af2pred_0001_af2pred (protein)
chain: DEEVEELEELLEKAEDPRERAKLLRELAKLIRRDPRLRELATEVVARVHDIPPEHARKFLELLAS
B10: il2ra_site2_3nfp_sap_23_mot_HHH_b2_04319_af2_000000252_0001_42_56_H_._1119cc3ece11f8544cf99e05e324817a_0001_1_af2_0001_0000200031_0000001_0_0001 (protein)
chain: SSSSDEAEKLLLLIYRLLKEGDTEEAEELLERLKELIEKLGDPDLERLARIAELALEDANSSSSS
B11: il2ra_site1_3nfp_sap_17_mot_891b8491a18eb46c9ad5c1702b87f9cc_0001_000000120_0001_18_33_H_._HHH_b1_05006_af2_0001_0000100002_0000001_0_0001_af2pred_0001_af2pred (protein)
chain: SSSSTDVAREFEEIAREVQKLLQEGDHEEAEELIERLEELARERNDEAAKLLVKRLKRKASSSSS
B12: il2ra_site1_1z92_sap_23_mot_HHH_b2_06255_000000058_0001_43_57_H_._HHH_b1_03673_0001_0000700042_0000001_0_0001 (protein)
chain: SSSSSSERAIRWALELLEAAVRLNNEEQQEFLVRDARLLAENSNNPEARELVEEMEELLGSSSSS
B13: il2ra_site2_2erj_sap_31_mot_3b06bd03f1c6bceadc68eab912867b79_0001_000000296_0001_36_50_H_._HHH_b2_05768_0001_0000500009_0000001_0_0001_af2pred_0001_af2pred (protein)
chain: SSSSSEDEEEVEELLRQAEEAAKRDPERAFRLLLEALEIALKSNNEELERLVLEVSLRIVHSSSS
B14: il2ra_site1_2b5i_sap_9_mot_819758749a7565068ab34538b75d2992_0001_1_000000083_0001_35_49_H_._d48bb16d323c7c55e6503d01bab6ca6d_0001_af2_0001_0000200071_0000001_0_ … (protein)
chain: SSSSSSSAEEILARAKAEAAAVNRREALLTLDKAHKEVDALGDEELADEIERLARELLKSSSSSS
B15: il2ra_site1_2b5i_sap_22_mot_HHH_b1_00368_000000051_0001_1_18_H_._HHH_b2_06351_af2_0001_0000800038_0000001_0_0001 (protein)
chain: SSSSDEEVSRYALEVLRELWKLLSSGDPEEAKRLLEEAEEFLRERNDPTAVRDLQRLVEIGSSSS
B16: il2ra_site2_2erj_normal_mot_HHH_b1_00920_af2_000000121_0001_18_35_H_._HHH_b1_07577_0001_0000300020_0000001_0_af2pred_0001_af2pred (protein)
chain: SSSSDEEVEEAFELAAEVLLELLEEGDEELARELYELLDRLIRHGDPRIAKELEEFLEKLSSSSS
B17: il2ra_site2_2erj_sap_26_mot_HHH_b1_04373_af2_000000118_0001_18_33_H_._HHH_b2_03966_0001_0000600025_0000001_0_0001_af2pred_0001_1_af2pred_swapped (protein)
chain: SSSDEESERIALFARLMAEYAEEQGDPELARRSLELAIRRLRELGDEEFVEELERLLEELNSSSS
B18: il2ra_site2_3nfp_normal_mot_HHH_b1_00660_af2_000000090_0001_40_57_H_._HHH_b1_04936_0001_0000200021_0000001_0_af2pred_0001_1_af2pred_swapped (protein)
chain: SSSSSDQEVRELLEEARELLEEGDPEEAEEVLRRASQIAFELQNHELFALVVRLLEEILQSSSSS

The target in the test is il2ra, P01589. Nature of the test: yeast display titration.
For the molecule B1, the “apparent Kd” value is “inactive: no binding seen”.
Next, B2: “inactive: no binding seen”; B3: “inactive: no binding seen”; B4: “inactive: no binding seen”.
Next, B5: “inactive: no binding seen”.
Under B6 stands “inactive: no binding seen”; under B7, “inactive: no binding seen”; under B8, “inactive: no binding seen”.
Take B9: the “apparent Kd” value is “inactive: no binding seen”.
B10: the “apparent Kd” value was “inactive: no binding seen”.
Next, B11: “inactive: no binding seen”; B12: “inactive: no binding seen”.
Under B13 stands “inactive: no binding seen”; under B14, “inactive: no binding seen”; under B15, “inactive: no binding seen”.
Turning to B16, the “apparent Kd” value is “inactive: no binding seen”.
In the case of B17, the “apparent Kd” value was “inactive: no binding seen”.
Next, B18: “inactive: no binding seen”.
